Measurements reported in publication PMC5847048 (Psychopharmacology, 2017).

Columns and labels:
in vivo = settings: for AUC(0-t) / Cmax: C57BL/6J, mouse, in vivo, po, 1 mg/kg, repeated, plasma, middle-aged mice; for AUC(0-t): Mean AUClast; for Cmax: Mean Cmax
Protocol: The sampling times were 30 min, 1, 2, 4, and 6 h.
Plasma was extracted from the blood sample by centrifugation (+ 4 °C, 1500g, 10 min) and stored at − 80 °C. Then, plasma samples were sent in dry ice to Celerion (Switzerland) for the pharmacokinetic analysis.

[1] = system: middle-aged mice (14–15 months old); assay: Contextual serial discrimination (CSD) task; assay type: in vivo, mouse; settings: Experiment 1 study B, donepezil 0.3 mg/kg per os daily 9 days, vehicle − 33.21%
Protocol: Treatments were administered per os daily for nine consecutive days for studies involving the CSD and SA tasks. The 8th and the 9th oral administrations were given 60 min before acquisition and test phases in the CSD task, or before the training and the test sessions in the SA task.
The studies were carried out on mice according to the procedure described in full by Celerier et al. ([2004]) and Tronche et al. ([2010]) (Fig.1). Briefly, the mouse learns two consecutive spatial discriminations (D1 and D2) in a four hole-board apparatus (45 × 45 × 30 cm) enclosed with gray Plexiglas walls. The floor of the hole-board was interchangeable (white and rough versus black and smooth). […]
Fig. 1 a Contextual serial discrimination: at the acquisition phase, mice performed two consecutive spatial discrimination sessions varying by the color and texture of the floor, i.e., D1, discrimination 1, and D2, discrimination 2. […] Subsequently, mice were submitted to the test phase in which they were repositioned on the floor of the first discrimination without any food pellet in the apparatus. b Two types of responses were calculated: (i) correct responses corresponding to head-dips into the hole baited at the acquisition of the first discrimination (D1), on the same floor context; (ii) interference responses corresponding to head-dips into the hole baited at the other (second) discrimination (D2). […]

[2] = donepezil 1.0 mg/kg with S 47445 (0.3 mg/kg)

SMILES: COc1cc2c(cc1OC)C(=O)C(CC1CCN(Cc3ccccc3)CC1)C2 (stereo not shown) [Donepezil, reference compound]
- AUC(0-t) (in vivo; donepezil 1.0 mg/kg alone): 24 ng·h/mL
- AUC(0-t) (in vivo; [2]): 21.4 ng·h/mL
- Cmax (in vivo; donepezil 1.0 mg/kg alone): 18.5 ng/mL
- Cmax (in vivo; [2]): 12 ng/mL
- Change in donepezil plasma exposure when administered with S 47445 (in vivo; donepezil 1 mg/kg with S 47445 0.3 mg/kg): no evidence of a change
- Plasma concentration at the active doses used in the pharmacological experiments (in vivo; donepezil, limit of quantification 0.1 ng/ml): below the limit of quantification
- Strength of contextual memory (SCM) score, first discrimination D1 [1]: 18.46%
